Publication PMC10681723
No constants are given. Whether binding was seen depends on the method and setting. For part of these data: Binding seen in cells or lysates may run through a third protein. Some entries that bind do so weakly or less than the wild type.

Amino acid sequences for entries named in this document (tags omitted). A change or cut given only in a name is not applied to a line headed by its entry. Chains listed by the source or under a name are the forms on record and can include a tag or linker. Residues count along the entry.
UniProt P32558: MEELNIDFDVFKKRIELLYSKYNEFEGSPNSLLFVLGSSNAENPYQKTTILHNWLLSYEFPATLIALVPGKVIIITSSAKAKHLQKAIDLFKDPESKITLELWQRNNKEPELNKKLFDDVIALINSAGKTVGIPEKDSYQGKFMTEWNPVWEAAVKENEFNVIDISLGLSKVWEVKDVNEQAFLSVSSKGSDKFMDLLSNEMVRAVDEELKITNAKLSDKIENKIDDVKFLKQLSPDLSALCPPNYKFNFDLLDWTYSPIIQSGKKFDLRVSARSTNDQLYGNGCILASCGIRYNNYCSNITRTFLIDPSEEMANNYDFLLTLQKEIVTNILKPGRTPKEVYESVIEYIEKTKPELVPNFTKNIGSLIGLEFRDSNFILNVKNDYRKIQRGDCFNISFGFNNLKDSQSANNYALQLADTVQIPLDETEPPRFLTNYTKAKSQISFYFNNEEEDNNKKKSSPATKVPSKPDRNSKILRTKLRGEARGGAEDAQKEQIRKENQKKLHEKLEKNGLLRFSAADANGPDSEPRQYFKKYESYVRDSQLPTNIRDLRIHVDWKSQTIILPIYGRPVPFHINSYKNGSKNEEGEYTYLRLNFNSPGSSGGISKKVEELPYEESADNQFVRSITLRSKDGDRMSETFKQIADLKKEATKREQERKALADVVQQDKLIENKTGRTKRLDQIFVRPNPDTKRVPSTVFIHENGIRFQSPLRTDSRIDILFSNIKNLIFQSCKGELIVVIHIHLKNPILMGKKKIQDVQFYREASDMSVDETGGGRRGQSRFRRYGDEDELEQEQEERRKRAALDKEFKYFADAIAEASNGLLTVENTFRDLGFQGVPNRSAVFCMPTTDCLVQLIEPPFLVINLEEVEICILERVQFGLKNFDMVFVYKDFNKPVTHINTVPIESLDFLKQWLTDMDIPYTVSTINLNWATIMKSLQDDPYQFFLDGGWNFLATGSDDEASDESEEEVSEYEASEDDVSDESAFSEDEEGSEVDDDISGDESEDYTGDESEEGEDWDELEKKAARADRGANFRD
TAP-tagged Spt16 N-terminal domain (Spt16-N-TAP) (budding yeast (S. cerevisiae)): residues 1-468 of P32558
TAP-tagged Spt16-m (SPT16-K692R693AA) (budding yeast (S. cerevisiae)) (P32558, form named): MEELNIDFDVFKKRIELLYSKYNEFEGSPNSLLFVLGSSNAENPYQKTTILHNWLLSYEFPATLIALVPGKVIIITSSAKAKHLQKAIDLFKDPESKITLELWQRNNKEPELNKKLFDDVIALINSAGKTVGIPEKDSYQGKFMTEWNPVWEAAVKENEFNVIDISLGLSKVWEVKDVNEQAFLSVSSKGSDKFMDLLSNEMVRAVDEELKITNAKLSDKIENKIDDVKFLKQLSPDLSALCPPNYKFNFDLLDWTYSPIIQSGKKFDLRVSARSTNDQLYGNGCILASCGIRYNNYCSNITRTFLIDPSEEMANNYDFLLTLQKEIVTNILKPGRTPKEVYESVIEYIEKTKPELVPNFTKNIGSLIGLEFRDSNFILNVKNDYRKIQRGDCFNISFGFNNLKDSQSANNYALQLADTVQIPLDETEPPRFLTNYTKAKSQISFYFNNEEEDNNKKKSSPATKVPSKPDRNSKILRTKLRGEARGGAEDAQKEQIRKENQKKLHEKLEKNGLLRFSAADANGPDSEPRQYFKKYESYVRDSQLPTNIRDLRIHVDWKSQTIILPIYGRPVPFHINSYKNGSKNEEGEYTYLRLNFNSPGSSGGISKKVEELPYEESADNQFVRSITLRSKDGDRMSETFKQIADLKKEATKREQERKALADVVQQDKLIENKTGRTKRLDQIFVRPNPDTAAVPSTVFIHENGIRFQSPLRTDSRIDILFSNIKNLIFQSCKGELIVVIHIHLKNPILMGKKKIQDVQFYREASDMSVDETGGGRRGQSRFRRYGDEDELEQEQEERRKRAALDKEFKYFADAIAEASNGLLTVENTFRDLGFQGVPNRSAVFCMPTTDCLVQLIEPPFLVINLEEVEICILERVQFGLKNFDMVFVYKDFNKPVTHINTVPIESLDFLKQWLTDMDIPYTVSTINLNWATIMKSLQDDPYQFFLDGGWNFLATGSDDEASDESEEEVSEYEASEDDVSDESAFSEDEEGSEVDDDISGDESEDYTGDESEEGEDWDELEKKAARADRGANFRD
TAP-tagged Spt16-ΔN (Spt16-ΔN-TAP) (budding yeast (S. cerevisiae)) (P32558, form named): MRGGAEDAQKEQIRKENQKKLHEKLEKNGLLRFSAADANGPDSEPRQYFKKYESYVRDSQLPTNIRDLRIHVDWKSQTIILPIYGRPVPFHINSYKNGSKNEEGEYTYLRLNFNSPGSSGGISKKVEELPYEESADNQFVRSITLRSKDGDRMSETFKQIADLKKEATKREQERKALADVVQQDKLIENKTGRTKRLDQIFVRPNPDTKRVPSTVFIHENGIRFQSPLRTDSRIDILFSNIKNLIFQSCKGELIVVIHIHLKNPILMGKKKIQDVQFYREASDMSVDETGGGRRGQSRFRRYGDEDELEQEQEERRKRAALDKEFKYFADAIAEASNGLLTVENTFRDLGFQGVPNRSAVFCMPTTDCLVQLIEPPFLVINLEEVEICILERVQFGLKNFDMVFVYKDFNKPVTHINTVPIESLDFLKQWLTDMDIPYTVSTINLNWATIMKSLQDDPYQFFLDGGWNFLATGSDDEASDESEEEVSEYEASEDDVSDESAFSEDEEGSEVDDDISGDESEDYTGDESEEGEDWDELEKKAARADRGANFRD
UniProt P29469: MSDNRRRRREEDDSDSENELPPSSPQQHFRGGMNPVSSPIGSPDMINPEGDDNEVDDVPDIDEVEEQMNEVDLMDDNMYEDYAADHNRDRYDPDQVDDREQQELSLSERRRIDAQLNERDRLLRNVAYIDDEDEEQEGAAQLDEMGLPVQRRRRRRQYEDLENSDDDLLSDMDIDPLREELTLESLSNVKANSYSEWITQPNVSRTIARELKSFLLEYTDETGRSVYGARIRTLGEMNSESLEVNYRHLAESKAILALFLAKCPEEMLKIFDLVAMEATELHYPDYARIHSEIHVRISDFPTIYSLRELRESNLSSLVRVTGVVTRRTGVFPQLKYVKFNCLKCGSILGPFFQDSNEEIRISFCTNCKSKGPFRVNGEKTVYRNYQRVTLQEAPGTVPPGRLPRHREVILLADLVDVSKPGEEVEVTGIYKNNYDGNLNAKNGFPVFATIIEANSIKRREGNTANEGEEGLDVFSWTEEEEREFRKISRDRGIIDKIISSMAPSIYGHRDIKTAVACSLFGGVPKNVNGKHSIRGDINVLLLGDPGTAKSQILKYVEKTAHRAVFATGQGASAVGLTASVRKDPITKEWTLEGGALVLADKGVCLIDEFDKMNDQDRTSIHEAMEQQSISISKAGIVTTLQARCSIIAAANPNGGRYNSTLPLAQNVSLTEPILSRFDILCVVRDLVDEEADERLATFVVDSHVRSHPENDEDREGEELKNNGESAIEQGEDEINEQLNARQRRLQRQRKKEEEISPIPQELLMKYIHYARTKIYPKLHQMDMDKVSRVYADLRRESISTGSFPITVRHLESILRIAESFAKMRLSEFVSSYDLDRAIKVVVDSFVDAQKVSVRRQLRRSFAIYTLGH
UniProt Q04636: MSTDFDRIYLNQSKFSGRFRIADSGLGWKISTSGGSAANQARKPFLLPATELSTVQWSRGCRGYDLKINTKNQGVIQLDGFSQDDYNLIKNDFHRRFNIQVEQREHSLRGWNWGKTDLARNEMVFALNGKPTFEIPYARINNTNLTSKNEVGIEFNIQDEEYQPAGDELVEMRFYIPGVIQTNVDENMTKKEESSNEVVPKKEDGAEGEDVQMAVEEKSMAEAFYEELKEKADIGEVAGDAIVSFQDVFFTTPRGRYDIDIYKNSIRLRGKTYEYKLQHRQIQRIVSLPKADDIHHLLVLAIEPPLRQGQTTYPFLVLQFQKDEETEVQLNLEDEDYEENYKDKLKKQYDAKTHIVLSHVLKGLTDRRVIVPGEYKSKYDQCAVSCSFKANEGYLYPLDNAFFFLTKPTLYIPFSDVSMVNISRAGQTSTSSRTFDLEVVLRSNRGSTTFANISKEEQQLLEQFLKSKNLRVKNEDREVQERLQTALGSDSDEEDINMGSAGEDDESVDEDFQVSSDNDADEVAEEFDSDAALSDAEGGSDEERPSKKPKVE

Key:
[1] = target: TAP-tagged Spt16 (Spt16-TAP), wild type (budding yeast (S. cerevisiae)) (UniProt P32558); experiment: co-IP; tandem affinity purification of TAP-tagged Spt16 from yeast lysate (IgG Sepharose, TEV elution, calmodulin resin; 25 mM Tris pH 8.0, 100 mM NaCl, DNase I); co-purified proteins by immunoblotting
[2] = target: TAP-tagged Spt16-m (SPT16-K692R693AA) (budding yeast (S. cerevisiae)) (UniProt P32558); experiment: as above
[3] = target: TAP-tagged Spt16 N-terminal domain (Spt16-N-TAP) (budding yeast (S. cerevisiae)) (UniProt P32558); experiment: as above
[4] = target: TAP-tagged Spt16 (Spt16-TAP), wild type (budding yeast (S. cerevisiae)) (UniProt P32558); experiment: affinity purification of the complex, Coomassie-stained gel; Spt16-TAP or Spt16-ΔN-TAP bound to IgG beads from yeast lysate, washed with IP buffer with 500 mM NaCl, eluted with TEV; SDS-PAGE and CBB staining
[5] = target: TAP-tagged Spt16-ΔN (Spt16-ΔN-TAP) (budding yeast (S. cerevisiae)) (UniProt P32558); experiment: as above
[6] = target: Flag-tagged Mcm2 (Mcm2-Flag) (budding yeast (S. cerevisiae)) (UniProt P29469); experiment: co-IP; Mcm2-Flag purified on ANTI-FLAG M2 gel from lysates of wild-type and spt16-ΔN yeast cells (Flag-IP buffer, 100 mM KAc; pellet Flag-IP with 600 mM KAc); immunoblotting
[7] = target: Mcm2-Vc155 (budding yeast (S. cerevisiae)) (UniProt P29469); experiment: split reporter; split YFP (Vc155 and Vn173) in live yeast cells, wild-type and spt16-ΔN; S-phase cells counted; confocal microscopy

binding [1]	binding [6]	Substance	further results
binds		Flag-tagged Mcm2 (Mcm2-Flag) (from UniProt P29469 1-868)	binding [2]: binds
binds		Mcm2–3A mutant protein (Y79A, Y82A, Y91A) (from UniProt P29469 1-868)	
	binds	Spt16 (in wild-type cells expressing Mcm2-Flag) (from UniProt P32558 1-1035)	
	binds weakly	histone H3 acetylated at lysine 56 (H3K56ac) (from UniProt P61830 1-136)	

More lines, now with the values behind:

Substance	binding [1]	binding [6]	further results
Mcm2 (from UniProt P29469 1-868)	binds		binding [3]: binds
Pob3 (from UniProt Q04636 1-552)			binding [4]: binds; binding [5]: binds
histone H3 (co-purified with Mcm2-Flag) (from UniProt P61830 1-136)		binds	
histone H3 tri-methylated at lysine 4 (H3K4me3) (from UniProt P61830 1-136)		binds	
histone H3-Vn173 (from UniProt P61830 1-136)			binding [7]: binds
